According to article doi:10.1101/2021.04.01.438077:
Where two headings read alike, the source gives them in different places. These are yes or no findings as the source states them, for the method shown. Binding seen in cells or lysates may run through a third protein. Here binding means that the protein was enriched with, or labelled near, the bait; the list need not be complete. Where a sequence is shown, tags or fusion partners need not be part of it.

Chains of the proteins cited; added tags and fusions are not shown.
UniProt O60610: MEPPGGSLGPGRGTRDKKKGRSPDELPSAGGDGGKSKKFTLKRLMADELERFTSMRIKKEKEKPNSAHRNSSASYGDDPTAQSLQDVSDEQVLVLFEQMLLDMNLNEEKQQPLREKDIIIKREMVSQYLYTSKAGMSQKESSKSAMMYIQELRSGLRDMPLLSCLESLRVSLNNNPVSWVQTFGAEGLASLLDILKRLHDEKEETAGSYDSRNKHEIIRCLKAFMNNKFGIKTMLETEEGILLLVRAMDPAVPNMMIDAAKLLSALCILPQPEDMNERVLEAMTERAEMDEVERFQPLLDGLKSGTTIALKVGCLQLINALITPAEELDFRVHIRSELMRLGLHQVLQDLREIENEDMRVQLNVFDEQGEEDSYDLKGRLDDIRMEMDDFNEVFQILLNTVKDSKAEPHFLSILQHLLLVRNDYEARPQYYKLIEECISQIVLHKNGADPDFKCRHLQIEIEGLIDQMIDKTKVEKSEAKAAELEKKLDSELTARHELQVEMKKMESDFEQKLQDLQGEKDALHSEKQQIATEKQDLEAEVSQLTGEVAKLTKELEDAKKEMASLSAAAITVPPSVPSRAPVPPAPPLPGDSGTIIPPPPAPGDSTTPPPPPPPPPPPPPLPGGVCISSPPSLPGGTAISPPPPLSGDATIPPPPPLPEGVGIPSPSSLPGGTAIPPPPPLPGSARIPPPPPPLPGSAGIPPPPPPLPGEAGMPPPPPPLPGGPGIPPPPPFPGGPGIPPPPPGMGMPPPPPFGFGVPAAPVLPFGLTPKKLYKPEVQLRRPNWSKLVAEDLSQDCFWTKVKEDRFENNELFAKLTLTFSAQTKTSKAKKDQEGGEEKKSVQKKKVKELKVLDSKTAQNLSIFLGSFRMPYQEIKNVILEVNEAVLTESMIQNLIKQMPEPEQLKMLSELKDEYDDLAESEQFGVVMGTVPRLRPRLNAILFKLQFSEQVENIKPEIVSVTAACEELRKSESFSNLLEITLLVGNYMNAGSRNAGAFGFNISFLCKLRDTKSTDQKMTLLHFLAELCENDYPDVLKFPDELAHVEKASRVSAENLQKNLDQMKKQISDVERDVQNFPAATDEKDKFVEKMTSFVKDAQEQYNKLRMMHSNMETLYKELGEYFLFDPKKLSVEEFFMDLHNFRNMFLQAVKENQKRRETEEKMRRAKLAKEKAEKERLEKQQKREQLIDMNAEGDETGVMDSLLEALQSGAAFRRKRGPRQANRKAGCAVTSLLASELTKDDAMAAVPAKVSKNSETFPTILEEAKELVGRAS
UniProt Q9UHB6: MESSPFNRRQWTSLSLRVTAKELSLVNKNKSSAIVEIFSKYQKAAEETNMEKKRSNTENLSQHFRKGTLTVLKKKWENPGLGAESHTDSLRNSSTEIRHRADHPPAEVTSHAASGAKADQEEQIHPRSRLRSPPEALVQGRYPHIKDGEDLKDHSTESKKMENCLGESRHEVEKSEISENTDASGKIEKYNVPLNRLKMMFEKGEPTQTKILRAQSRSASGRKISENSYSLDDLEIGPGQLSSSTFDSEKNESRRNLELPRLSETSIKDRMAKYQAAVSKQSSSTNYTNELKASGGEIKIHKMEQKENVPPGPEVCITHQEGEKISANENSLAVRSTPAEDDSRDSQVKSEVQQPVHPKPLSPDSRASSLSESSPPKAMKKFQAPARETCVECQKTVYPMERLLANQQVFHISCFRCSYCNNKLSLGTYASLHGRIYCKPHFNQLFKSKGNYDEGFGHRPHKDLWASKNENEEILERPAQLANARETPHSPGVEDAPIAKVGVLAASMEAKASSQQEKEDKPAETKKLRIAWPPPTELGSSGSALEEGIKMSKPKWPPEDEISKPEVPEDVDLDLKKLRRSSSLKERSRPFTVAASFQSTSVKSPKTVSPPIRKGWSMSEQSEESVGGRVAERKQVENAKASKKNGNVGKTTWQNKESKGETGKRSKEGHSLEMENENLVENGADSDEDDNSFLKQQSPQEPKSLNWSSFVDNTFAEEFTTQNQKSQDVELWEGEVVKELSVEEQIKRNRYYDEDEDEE

T1: Flag-Rab40b-4A (UniProt Q12829)
T1 sequence: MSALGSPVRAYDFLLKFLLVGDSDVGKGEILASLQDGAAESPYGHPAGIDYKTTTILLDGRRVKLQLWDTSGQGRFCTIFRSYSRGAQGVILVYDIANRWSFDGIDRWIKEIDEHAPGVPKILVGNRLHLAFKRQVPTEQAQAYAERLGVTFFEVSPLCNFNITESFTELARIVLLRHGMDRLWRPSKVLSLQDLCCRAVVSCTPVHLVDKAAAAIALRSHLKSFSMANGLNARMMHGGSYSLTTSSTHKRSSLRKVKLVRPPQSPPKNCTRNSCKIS

B1: ARHGAP42 (endogenous) (protein, UniProt A6NI28 1-874)
chain: MGLPTLEFSDSYLDSPDFRERLQCHEIELERTNKFIKELIKDGSLLIGALRNLSMAVQKFSQSLQDFQFECIGDAETDDEISIAQSLKEFARLLIAVEEERRRLIQNANDVLIAPLEKFRKEQIGAAKDGKKKFDKESEKYYSILEKHLNLSAKKKESHLQEADTQIDREHQNFYEASLEYVFKIQEVQEKKKFEFVEPLLSFLQGLFTFYHEGYELAQEFAPYKQQLQFNLQNTRNNFESTRQEVERLMQRMKSANQDYRPPSQWTMEGYLYVQEKRPLGFTWIKHYCTYDKGSKTFTMSVSEMKSSGKMNGLVTSSPEMFKLKSCIRRKTDSIDKRFCFDIEVVERHGIITLQAFSEANRKLWLEAMDGKEPIYTLPAIISKKEEMYLNEAGFNFVRKCIQAVETRGITILGLYRIGGVNSKVQKLMNTTFSPKSPPDIDIDIELWDNKTITSGLKNYLRCLAEPLMTYKLHKDFIIAVKSDDQNYRVEAVHALVHKLPEKNREMLDILIKHLVKVSLHSQQNLMTVSNLGVIFGPTLMRAQEETVAAMMNIKFQNIVVEILIEHYEKIFHTAPDPSIPLPQPQSRSGSRRTRAICLSTGSRKPRGRYTPCLAEPDSDSYSSSPDSTPMGSIESLSSHSSEQNSTTKSASCQPREKSGGIPWIATPSSSNGQKSLGLWTTSPESSSREDATKTDAESDCQSVASVTSPGDVSPPIDLVKKEPYGLSGLKRASASSLRSISAAEGNKSYSGSIQSLTSVGSKETPKASPNPDLPPKMCRRLRLDTASSNGYQRPGSVVAAKAQLFENVGSPKPVSSGRQAKAMYSCKAEHSHELSFPQGAIFSNVYPSVEPGWLKATYEGKTGLVPENYVVFL
B2: ARHGAP19 (endogenous) (protein, UniProt Q14CB8 1-494)
chain: MATEAQSEGEVPARESGRSDAICSFVICNDSSLRGQPIIFNPDFFVEKLRHEKPEIFTELVVSNITRLIDLPGTELAQLMGEVDLKLPGGAGPASGFFRSLMSLKRKEKGVIFGSPLTEEGIAQIYQLIEYLHKNLRVEGLFRVPGNSVRQQILRDALNNGTDIDLESGEFHSNDVATLLKMFLGELPEPLLTHKHFNAHLKIADLMQFDDKGNKTNIPDKDRQIEALQLLFLILPPPNRNLLKLLLDLLYQTAKKQDKNKMSAYNLALMFAPHVLWPKNVTANDLQENITKLNSGMAFMIKHSQKLFKAPAYIRECARLHYLGSRTQASKDDLDLIASCHTKSFQLAKSQKRNRVDSCPHQEETQHHTEEALRELFQHVHDMPESAKKKQLIRQFNKQSLTQTPGREPSTSQVQKRARSRSFSGLIKRKVLGNQMMSEKKKKNPTPESVAIGELKGTSKENRNLLFSGSPAVTMTPTRLKWSEGKKEGKKGFL

Columns and labels:
[1] = target: T1, Flag-Rab40b-4A; experiment: affinity purification with mass spectrometry
[2] = target: T1, Flag-Rab40b-4A; experiment: affinity purification with mass spectrometry; remark: listed apart in the source

| binding [1] | binding [2] | Molecule |
| --- | --- | --- |
| binds |  | DIAPH1 (endogenous) (from UniProt O60610 1-1272) |
| binds |  | EPLIN (Epithelial Protein Lost In Neoplasia), endogenous (from UniProt Q9UHB6 1-759) |
|  | binds | B1 |
|  | binds | B2 |
